The nature of the series: PLP thiazolidine formation: reaction with pyridoxal-5′ phosphate cofactor, absorbance scan.
[1] abbreviates: 2 mM compound + 2 mM PLP, carbonate-bicarbonate buffer pH 7.4, 1 h room temperature, n=6.

Turning to `NCCS.O=C(O)C(O)C(O)C(=O)O` (stereo not drawn) [cysteamine bitartrate], under setting [1], the “absorbance at 320 nm, reaction products versus PLP alone” value was “significant difference” and the “absorbance at 390 nm versus PLP alone” value was “significant reduction”. Besides, the “reaction with PLP (thiazolidine formation)” value (equimolar 2 mM, pH 7.4) was “react with PLP”.

Source of the values: US20230338310A1, “ANTI-VIRAL THERAPY” (priority 2020, published 2023).
